Measured values reported in PubChem BioAssay AID624291 (National Center for Advancing Translational Sciences (NCATS), 2012).
In all, about 350,000 compounds went through this assay and about 220 (0.063%) were called active. The shares of active, inactive and inconclusive entries below differ from those in the screen. Calls follow the shape of the dose curve; as a rule, active = well fitted activation curve with a large enough effect; inconclusive = small, poorly fitted or top-dose-only effect; inactive = no such curve, though single readings can be large or run the other way. A potency beside an inconclusive call is a rough fit, not a confirmed value.

Assay: qHTS for Activators of Integrin-Mediated Alleviation for Muscular Dystrophy; also: nearly all actives have a fitted effect of over 60% in size;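 as to activation: 100% = response of the positive control SU9516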
Conditions: alpha7betagal myoblasts, beta-gal FDG fluorescence, 48 h; activation: at 38.3 µM (top of the series)
Summary of the method: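 Alpha7betagal+/- myoblasts (passage 13) were plated 16-24 hr, then exposed to compounds (1:260 dilution of DMSO stock) for 48 hours at 37C. After MPER lysis, β-galactosidase reporter activity was read as FDG fluorescence (ex 480/em 540) after 30 minutes.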
Potency is read from the fitted curve at half-maximal effect.

Structure (SMILES)	Potency	activation
CCOc1ccccc1NC(=O)Cn1c(=O)oc2cc(Cl)ccc21	inconclusive: 31.6 µM [activator, partial curve, poor fit]	
COC(=O)c1cc(S(=O)(=O)Nc2cccc(S(N)(=O)=O)c2)oc1C	inconclusive: 8.91 µM [activator, partial curve, poor fit]	
O=C(NC(=S)Nc1ccc2c(c1)OCCO2)c1cccc2ccccc12		inactive: 0%
COC(=O)c1ccccc1NC(=S)NC(=O)c1ccc2c(c1)OCO2		inactive: 16.1%
NS(=O)(=O)c1ccc(NC(=O)c2c(F)cccc2Cl)cc1	inconclusive: 11.2 µM [activator, single point]	
COc1cc(/C=C/c2nc(-c3ccccc3O)n[nH]2)cc(OC)c1OC	inconclusive: 12.6 µM [activator, partial curve]	
O=C(O)CC1(CC(=O)Nc2cc(F)ccc2Cl)CCCCC1	inconclusive: 28.2 µM [activator, single point]	
COc1ccc2oc(C(=O)OCC(=O)/C(C#N)=C(\C)N)c(C)c2c1	inconclusive: 2.82 µM [activator, partial curve, poor fit]	
CC1=NN(c2nc3ccccc3[nH]2)C(=O)/C1=C/N(C)C	inconclusive: 28.2 µM [activator, single point]	
CC1CCOC2(O1)C(=O)N(CN1CCN(c3cccc(Cl)c3)CC1)c1ccccc12 (centres undefined)		inactive: -0.182%
CC(Oc1coc(CN2CCN(C(=O)c3ccco3)CC2)cc1=O)c1ccccc1 (centres undefined)		inactive: 0%
Cc1cccc2cc(C(c3nnnn3Cc3ccccc3)N3CCN(C)CC3)c(=O)[nH]c12 (centres undefined)	inconclusive: 5.01 µM [activator, single point]	
CCC(=O)NC1CC2CCCC(C1)N2Cc1ccc(C)cc1 (centres undefined)		inactive: -32.4%
CCCc1c(O)nc(SCCN(CCC)CCC)[nH]c1=O		inactive: -1.13% [at 7.66 µM]
Cc1c(CC(=O)NC(C)C)c(=O)oc2cc3c(cc12)CCC(C)(C)O3	inconclusive: 28.2 µM [activator, single point]	
CC(=O)NC(Cc1ccccc1)C(=O)NC(Cc1ccccc1)C(=O)O (centres undefined)	inconclusive: 0.501 µM [activator, partial curve, poor fit]	
Cc1cccc(C)c1NC(=O)CN1CCN(C(=O)CN2C(=O)NC3(CCCCC3C)C2=O)CC1 (centres undefined)	inconclusive: 0.501 µM [activator, full curve, poor fit]	
O=C(C1=C[C@@H](c2ccc(Br)cc2)C[C@@H](OCc2ccc(CO)cc2)O1)N1CCN(Cc2ccccc2)CC1		inactive: -44.1%
COc1ccc(C)cc1NC(=O)CNC(c1ccccc1)c1ccccc1	inconclusive: 11.2 µM [activator, single point]	

Arranged by count of non-hydrogen atoms (ascending): 3 of the compounds above.
Structure (SMILES)	Potency	activation
NS(=O)(=O)c1ccc(NC(=O)c2c(F)cccc2Cl)cc1	inconclusive: 11.2 µM [activator, single point]	
COc1ccc2oc(C(=O)OCC(=O)/C(C#N)=C(\C)N)c(C)c2c1	inconclusive: 2.82 µM [activator, partial curve, poor fit]	
CC(=O)NC(Cc1ccccc1)C(=O)NC(Cc1ccccc1)C(=O)O (centres undefined)	inconclusive: 0.501 µM [activator, partial curve, poor fit]	
